# Results taken from the supplement of paper PMC8728848.
# The other results are listed elsewhere or left out.
# B1: Aap arpt (Staphylococcus epidermidis) (protein)
# chain: NNEAPQMSSTLQAEEGSNAEAPQSEPTKAEEGGNAEAAQSEPTKAEEGGNAEAPQSEPTKAEEGGNAEAAQSEPTKTEEGSNVKAAQSEPTKAEEGSNAEAPQSEPTKTEEGSNAKAAQSEPTKAEEGGNAEAAQSEPTKTEEGSNAEAPQSEPTKAEEGGYAEAPQSEPTKTEEGGNAEAPNVPTIKA
# Experiments:
# Assay in all cases: glycan array binding signal (z-score within array); higher = stronger binding
# Conditions in all cases: glycan notation: IUPAC condensed, linker removed
# [1] = molecular target: Man(a1-2)Man(a1-3)[Man(a1-2)Man(a1-6)]Man(a1-6)[Man(a1-2)Man(a1-2)Man(a1-3)]Man
# How it was run: (§1)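 The binding signal is a Z-score computed within each array and averaged over linkers. Arrays of the same protein sequence at different concentrations or buffers were also averaged together. Data originate from 3228 arrays in the Consortium for Functional Glycomics database, kept only where the protein sequence was available.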
# [2] = molecular target: Man(a1-2)Man(a1-3)[Man(a1-2)Man(a1-6)]Man(a1-6)[Man(a1-2)Man(a1-2)Man(a1-3)]Man(b1-4)GlcNAc(b1-4)GlcNAc
# How it was run: as §1
# [3] = molecular target: Man(a1-2)Man(a1-3)[Man(a1-6)]Man(a1-6)[Man(a1-2)Man(a1-3)]Man(b1-4)GlcNAc(b1-4)GlcNAc
# How it was run: as §1
# [4] = molecular target: Man(a1-2)Man(a1-6)[Man(a1-3)]Man(a1-6)[Man(a1-2)Man(a1-2)Man(a1-3)]Man
# How it was run: as §1
# [5] = molecular target: Man(a1-2)Man(a1-6)[Man(a1-3)]Man(a1-6)[Man(a1-2)Man(a1-2)Man(a1-3)]Man(b1-4)GlcNAc(b1-4)GlcNAc
# How it was run: as §1
# [6] = molecular target: Man(a1-3)[Man(a1-6)]Man
# How it was run: as §1
# [7] = molecular target: Man(a1-3)[Man(a1-6)]Man(a1-6)[Man(a1-2)Man(a1-3)]Man(b1-4)GlcNAc(b1-4)GlcNAc
# How it was run: as §1
# [8] = molecular target: Man(a1-3)[Man(a1-6)]Man(a1-6)[Man(a1-3)]Man
# How it was run: as §1
# [9] = molecular target: Man(a1-3)[Man(a1-6)]Man(a1-6)[Man(a1-3)]Man(b1-4)GlcNAc(b1-4)GlcNAc
# How it was run: as §1
# [10] = molecular target: Man(a1-3)[Man(a1-6)]Man(b1-4)GlcNAc(b1-4)GlcNAc
# How it was run: as §1
# [11] = molecular target: Man(a1-3)[Man(a1-6)]Man(b1-4)GlcNAc(b1-4)[Fuc(a1-6)]GlcNAc
# How it was run: as §1
# [12] = molecular target: Man(a1-6)Man
# How it was run: as §1
# [13] = molecular target: Man(b1-4)GlcNAc
# How it was run: as §1
# [14] = molecular target: MurNAc(b1-4)GlcNAc
# How it was run: as §1
# [15] = molecular target: Neu5Ac(a2-3)Gal
# How it was run: as §1
# [16] = molecular target: Neu5Ac(a2-3)Gal(b1-3)GalNAc
# How it was run: as §1
# [17] = molecular target: Neu5Ac(a2-3)Gal(b1-3)GalNAc(b1-3)Gal(a1-4)Gal(b1-4)Glc
# How it was run: as §1
# [18] = molecular target: Neu5Ac(a2-3)Gal(b1-3)GalNAc(b1-4)[Neu5Ac(a2-3)]Gal(b1-4)Glc
# How it was run: as §1
# [19] = molecular target: Neu5Ac(a2-3)Gal(b1-3)GalNAc(b1-4)[Neu5Ac(a2-8)Neu5Ac(a2-3)]Gal(b1-4)Glc
# How it was run: as §1
# [20] = molecular target: Neu5Ac(a2-3)Gal(b1-3)GalNAc6S
# How it was run: as §1
# [21] = molecular target: Neu5Ac(a2-3)Gal(b1-3)GlcNAc
# How it was run: as §1
# [22] = molecular target: Neu5Ac(a2-3)Gal(b1-3)GlcNAc(b1-2)Man
# How it was run: as §1
# [23] = molecular target: Neu5Ac(a2-3)Gal(b1-3)GlcNAc(b1-2)Man(a1-3)[GlcNAc(b1-4)][Neu5Ac(a2-3)Gal(b1-3)GlcNAc(b1-2)Man(a1-6)]Man(b1-4)GlcNAc(b1-4)GlcNAc
# How it was run: as §1
# [24] = molecular target: Neu5Ac(a2-3)Gal(b1-3)GlcNAc(b1-2)Man(a1-3)[Neu5Ac(a2-3)Gal(b1-3)GlcNAc(b1-2)Man(a1-6)]Man(b1-4)GlcNAc(b1-4)GlcNAc
# How it was run: as §1
# [25] = molecular target: Neu5Ac(a2-3)Gal(b1-3)GlcNAc(b1-2)[Neu5Ac(a2-3)Gal(b1-3)GlcNAc(b1-4)]Man(a1-6)[Neu5Ac(a2-3)Gal(b1-3)GlcNAc(b1-2)Man(a1-3)]Man(b1-4)GlcNAc(b1-4)GlcNAc
# How it was run: as §1
# [26] = molecular target: Neu5Ac(a2-3)Gal(b1-3)GlcNAc(b1-3)Gal(b1-3)GlcNAc
# How it was run: as §1
# [27] = molecular target: Neu5Ac(a2-3)Gal(b1-3)GlcNAc(b1-3)Gal(b1-4)GlcNAc
# How it was run: as §1
# [28] = molecular target: Neu5Ac(a2-3)Gal(b1-3)GlcNAc(b1-3)GalNAc
# How it was run: as §1
# [29] = molecular target: Neu5Ac(a2-3)Gal(b1-3)GlcNAc(b1-4)Gal(b1-4)Glc
# How it was run: as §1
# [30] = molecular target: Neu5Ac(a2-3)Gal(b1-3)GlcNAc(b1-6)GalNAc
# How it was run: as §1
# [31] = molecular target: Neu5Ac(a2-3)Gal(b1-3)GlcNAc6S
# How it was run: as §1
# [32] = molecular target: Neu5Ac(a2-3)Gal(b1-3)[Fuc(a1-4)]GlcNAc
# How it was run: as §1
# [33] = molecular target: Neu5Ac(a2-3)Gal(b1-3)[Fuc(a1-4)]GlcNAc(b1-3)Gal(b1-3)[Fuc(a1-4)]GlcNAc
# How it was run: as §1
# [34] = molecular target: Neu5Ac(a2-3)Gal(b1-3)[Fuc(a1-4)]GlcNAc(b1-3)Gal(b1-4)[Fuc(a1-3)]GlcNAc
# How it was run: as §1
# [35] = molecular target: Neu5Ac(a2-3)Gal(b1-3)[GlcNAc(b1-6)]GalNAc
# How it was run: as §1
# [36] = molecular target: Neu5Ac(a2-3)Gal(b1-3)[Neu5Ac(a2-6)]GalNAc
# How it was run: as §1
# [37] = molecular target: Neu5Ac(a2-3)Gal(b1-3)[Neu5Ac(a2-6)]GlcNAc(b1-3)[Fuc(a1-3)[Gal(b1-4)]GlcNAc(b1-6)]Gal(b1-4)Glc
# How it was run: as §1
# [38] = molecular target: Neu5Ac(a2-3)Gal(b1-3)]Neu5Ac(a2-3)Gal(b1-4)]GlcNAc
# How it was run: as §1
binder,measurement,setting,value
B1,glycan array binding signal (z-score),[1],0.419
same,glycan array binding signal (z-score),[2],-0.725
same,glycan array binding signal (z-score),[3],-1.42
same,glycan array binding signal (z-score),[4],-2.21
same,glycan array binding signal (z-score),[5],-0.732
same,glycan array binding signal (z-score),[6],-0.199
same,glycan array binding signal (z-score),[7],0.056
same,glycan array binding signal (z-score),[8],-2.02
same,glycan array binding signal (z-score),[9],0.688
same,glycan array binding signal (z-score),[10],-0.21
same,glycan array binding signal (z-score),[11],1.13
same,glycan array binding signal (z-score),[12],-0.965
same,glycan array binding signal (z-score),[13],-0.455
same,glycan array binding signal (z-score),[14],-1.3
same,glycan array binding signal (z-score),[15],-1.51
same,glycan array binding signal (z-score),[16],0.205
same,glycan array binding signal (z-score),[17],1.83
same,glycan array binding signal (z-score),[18],-1.39
same,glycan array binding signal (z-score),[19],-0.185
same,glycan array binding signal (z-score),[20],0.46
same,glycan array binding signal (z-score),[21],-0.693
same,glycan array binding signal (z-score),[22],-0.298
same,glycan array binding signal (z-score),[23],0.868
same,glycan array binding signal (z-score),[24],-0.979
same,glycan array binding signal (z-score),[25],-0.309
same,glycan array binding signal (z-score),[26],-0.914
same,glycan array binding signal (z-score),[27],-0.171
same,glycan array binding signal (z-score),[28],0.983
same,glycan array binding signal (z-score),[29],-1.29
same,glycan array binding signal (z-score),[30],0.52
same,glycan array binding signal (z-score),[31],0.561
same,glycan array binding signal (z-score),[32],-0.52
same,glycan array binding signal (z-score),[33],0.827
same,glycan array binding signal (z-score),[34],0.571
same,glycan array binding signal (z-score),[35],0.285
same,glycan array binding signal (z-score),[36],-0.022
same,glycan array binding signal (z-score),[37],0.084
same,glycan array binding signal (z-score),[38],2.21

# Some of the entries above, set out differently:
binder	measurement	setting	value
B1	glycan array binding signal (z-score)	[19]	-0.185
same	glycan array binding signal (z-score)	[20]	0.46
same	glycan array binding signal (z-score)	[21]	-0.693
same	glycan array binding signal (z-score)	[22]	-0.298
same	glycan array binding signal (z-score)	[23]	0.868
same	glycan array binding signal (z-score)	[24]	-0.979
same	glycan array binding signal (z-score)	[25]	-0.309
same	glycan array binding signal (z-score)	[26]	-0.914
same	glycan array binding signal (z-score)	[27]	-0.171
same	glycan array binding signal (z-score)	[28]	0.983
same	glycan array binding signal (z-score)	[29]	-1.29
